The results are deposited in PubChem (AID1053133; Broad Institute, 2014).

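Plate-reader measure of the Venus reporter marking one vaccinia stage in infected cells (the cell line is not named here); read time unknown. The test concentration is not given here. Percent change in Venus reporter signal; lower (more negative) values mean stronger inhibition of that viral stage.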

Values are in %. How 0% and 100% were set is not given here. Common to all entries: measured here: Venus reporter, other viral stage. This is a side read-out of the assay, for part of the compounds, not drawn at random.

- COCC#Cc1ccc([C@@H]2[C@H](CO)N3CCCCN(S(=O)(=O)c4ccccc4C)C[C@@H]23)cc1 | activity change (Venus) -38.12%
- O=C(Cc1ccncc1)N1C[C@@H]2N[C@H](C1)C2c1ccc(-c2ccncc2)cc1 (some centres unmarked) | activity change (Venus) -25.7%
- O=C(C1CCCCC1)N1CC2(C1)[C@H](c1ccccc1)[C@H](CO)N2Cc1ccc(Cl)cc1 | activity change (Venus) -38.76%
- COc1ccc(CN(C)C[C@H]2OCCCC[C@H](C)Oc3ccc(NS(=O)(=O)c4ccc(C)cc4)cc3C(=O)N([C@@H](C)CO)C[C@H]2C)cc1 | activity change (Venus) -51.48%
- COc1ccc(CN(C)C[C@H]2OCCCC[C@@H](C)Oc3ccc(NS(=O)(=O)c4ccc(F)cc4)cc3C(=O)N([C@@H](C)CO)C[C@H]2C)cc1 | activity change (Venus) -49.18%
- CCC(=O)N(C)C[C@H]1Oc2cc(C#CC3CCCCC3)ccc2S(=O)(=O)N([C@H](C)CO)C[C@@H]1C | activity change (Venus) -32.91%
- C[C@H]1CN([C@@H](C)CO)S(=O)(=O)c2ccc(Br)cc2O[C@@H]1CN(C)Cc1ccncc1 | activity change (Venus) -38.49%
- COc1ccc(-c2ccc([C@H]3[C@@H](C#N)N(C(=O)NC4CCCCC4)[C@H]3CO)cc2)cc1 | activity change (Venus) -28.94%
- Cc1ccc(S(=O)(=O)Nc2ccc3c(c2)C(=O)N([C@@H](C)CO)C[C@H](C)[C@@H](CN(C)Cc2ccc(Cl)c(Cl)c2)O3)cc1 | activity change (Venus) -28.49%
- C[C@H]1CN([C@@H](C)CO)C(=O)c2cc(/C=C/c3ccccc3)cnc2O[C@@H]1CN(C)C(=O)Nc1ccc(C(F)(F)F)cc1 | activity change (Venus) -51.18%
- C/C=C/c1ccc2c(c1)O[C@H](CN(C)Cc1ccccc1)[C@H](C)CN([C@@H](C)CO)S2(=O)=O | activity change (Venus) -21.52%
- O=C(Nc1ccc(F)cc1)N1CC(=O)N2[C@@H](CO)[C@@H](c3ccc(-c4cccc(F)c4)cc3)[C@@H]2C1 | activity change (Venus) -33.85%
- O=C(c1ccc(F)cc1)N1CC(=O)N2[C@H](CO)[C@@H](c3ccc(C#CC4CC4)cc3)[C@H]2C1 | activity change (Venus) -26.26%
- C[C@@H]1CN([C@@H](C)CO)C(=O)Cc2cc(N(C)C)ccc2O[C@@H]1CN(C)Cc1ccc(C(F)(F)F)cc1 | activity change (Venus) -24.22%
- COc1ccc2c3c([nH]c2c1)[C@@H](CO)N(C(=O)c1cccc(F)c1)CC31CN(C(=O)c2cccc(F)c2)C1 | activity change (Venus) -30.76%
- C[C@@H]1CN([C@@H](C)CO)S(=O)(=O)c2ccc(-c3cccc(F)c3)cc2O[C@H]1CN(C)C(=O)c1cccc(F)c1 | activity change (Venus) -46.66%
- C[C@@H]1CN([C@@H](C)CO)C(=O)c2cc(NS(=O)(=O)c3ccc(Cl)cc3)ccc2O[C@H]1CN(C)Cc1ccc(Cl)c(Cl)c1 | activity change (Venus) -63.31%
- CNC[C@@H]1Oc2cc(C#CC3CCCC3)ccc2S(=O)(=O)N([C@@H](C)CO)C[C@H]1C | activity change (Venus) -43.3%
- Cc1cccc(-c2ccc([C@H]3[C@@H](CO)N4CCCCN(S(=O)(=O)c5cccs5)C[C@H]34)cc2)c1 | activity change (Venus) -31.02%
- CCC(=O)N1CCCCN2[C@H](CO)[C@@H](c3ccc(/C=C/c4ccccc4)cc3)[C@@H]2C1 | activity change (Venus) -42.04%
- C[C@H](CO)N1C[C@H](C)[C@H](CN(C)Cc2ccc(C(F)(F)F)cc2)OCc2ccccc2-c2ccccc2C1=O | activity change (Venus) -53.08%
- COc1ccc(-c2ccc3c(c2)O[C@H](CN(C)C(=O)Nc2ccccc2F)[C@@H](C)CN([C@@H](C)CO)S3(=O)=O)cc1 | activity change (Venus) -26.01%
- COc1cccc(S(=O)(=O)N(C)C[C@@H]2Oc3ncc(C#Cc4ccc(C(F)(F)F)cc4)cc3C(=O)N([C@H](C)CO)C[C@@H]2C)c1 | activity change (Venus) -24.44%
- CC(C)CC#Cc1ccc([C@H]2[C@H]3CN(C(=O)Nc4ccccc4)CCCCN3[C@H]2CO)cc1 | activity change (Venus) -43.77%

The first 2 entries again:

{"compound": "COCC#Cc1ccc([C@@H]2[C@H](CO)N3CCCCN(S(=O)(=O)c4ccccc4C)C[C@@H]23)cc1", "activity change (Venus) (%)": "-38.12"}
{"compound": "O=C(Cc1ccncc1)N1C[C@@H]2N[C@H](C1)C2c1ccc(-c2ccncc2)cc1", "stereo": "some centres unmarked", "activity change (Venus) (%)": "-25.7"}